# Results of single-concentration screens

Data taken from ChEMBL document CHEMBL3988442, “University of Dundee, Small-Polar-MMV Screening Library” (2021).

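Growth of Mycobacterium tuberculosis over 4 days (cholesterol / DPPC medium with tyloxapol); the read-out is not stated. Tested at 50 µM. Direction is inferred from retests: higher values go with more growth inhibition. About 69,000 compounds were tested under these conditions; 0.54% (about 370) showed 50% or more at least once.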

Results are given as percent effect. The controls that fix the scale are not given in the record; negative values are as filed. Compounds were drawn at random from those tested, without regard to their results. Two or more numbers in one place are separate tests of the same structure; such repeats can differ widely.

structure	percent effect
CCc1nn(C)c(Cl)c1CN1CCCC2(CC1)CN(C)C(=O)O2 (stereo unspecified)	-9.298
c1cc(-c2cn[nH]c2)ccc1CN1CCNCC1	27.55
COc1ccc(C2=NOC(C#N)C2)cc1 (stereo unspecified)	37.58
CC(C)N1CCCC(Cc2nccnc2Cl)C1 (stereo unspecified)	0.9388
O=C(Cc1ccsc1)N1CCCC2(COCCN(CC3CC3)C2)C1.O=C(O)C(F)(F)F (stereo unspecified)	-6.612 & 0.3499
O=C1CC(c2ccsc2)c2sc(C(=O)O)c(-c3ccccc3)c2N1 (stereo unspecified)	-3.335
O=C(Cc1ccccc1Cl)NCCN1CCC(c2cccs2)CC1	-9.684
CCc1cc(NCCCN(C)C2CCCC2)ncn1	-19.38
Cc1nc2c(c(NCc3nc4ccccc4s3)n1)CCNCC2	22.84
Cn1ccc2c(-c3nccc(N)n3)ccnc21	14.68
CN1CCCC(NC(=O)c2ccc(C(=O)c3cc[nH]c3)cc2)C1 (stereo unspecified)	-9.978 & -42.42
[H][C@@]12CC[C@@](O)(c3ccc(C)cn3)[C@]1([H])CN(Cc1cccnc1)C2	-15.98
O=C(CN1CCc2cncnc2C1)NC1CCCCNC1=O (stereo unspecified)	-20.89
CC(Cn1cccn1)C(=O)N1CCC(NS(C)(=O)=O)CC1 (stereo unspecified)	-15.36 & -1.743
Cc1nc(CCCNC(=O)C2CC(=O)N(C3CCCC3)C2)sc1C (stereo unspecified)	-1.046
CCN(CC)S(=O)(=O)c1ccc2c(c1)N(Cc1ccccn1)C(=O)CS2	-3.351
CCc1nc2n(n1)CCCC2NC(=O)Nc1ccc(F)cc1C#N (stereo unspecified)	-0.3661
CC(C)c1cc(CN2CCN(c3cccnc3)CC2)n(C)n1	-28.69
Cn1nccc1CCC(=O)N1CCOC(c2cnccn2)C1 (stereo unspecified)	-2.522
CC/C=C(/C)C(=O)NCc1ccc(OC)nc1	31.76
CCN(Cc1ccoc1)C(=O)Nc1ccccc1CN1CCOCC1	5.811
Cc1cccc(CN2CCc3[nH]nc(C(=O)N4CCOCC4)c3C2)n1	-21.96
CCc1cnc(CN(C)C(=O)NC2CCN(c3ccccc3)C2)s1 (stereo unspecified)	26.04
CC(C)Cc1noc(CN2CCCN(C(=O)c3cccc(Cl)c3)CC2)n1	-32.32
CN(C)C(=O)Cc1nc(CN2CCCC2Cn2cncn2)cs1 (stereo unspecified)	12.77
CC(=O)N1CCC(NC2(Cc3cc(CN(C)C)on3)COC2)CC1	-28.35
Cc1nc(CC(=O)NCc2csc(N3CCCC3)n2)cs1	-8.456
Cc1nn(C)c(C)c1CCC(=O)NCC1(C(N)=O)CCOCC1	-34.1
Cc1cc(C)n(C2CCCN(C(=O)CCOc3cccc(F)c3)C2)n1 (stereo unspecified)	-6.226
Cc1ccc2nc(C3CCCN3Cc3cccc(CCN)c3)[nH]c2c1 (stereo unspecified)	12.24 & 3.922
O=C(O)C(F)(F)F.[H][C@@]12C[C@H](C(=O)NC)CN(CC3CC3)[C@]1([H])CCO2	4.454
COC(=O)CCC(=O)N(C/C=C/c1ccccc1)CCO	-28.63
CC(Cn1cccn1)NC(=O)CCc1ccc(S(N)(=O)=O)cc1 (stereo unspecified)	-9.459
COCc1nc2c(o1)CN(C(=O)NCc1ccccc1)C2	0.8634
O=C(O)C(F)(F)F.c1cc(CN2CCCn3cnc(COCC4CC4)c3C2)co1	-24.45 & -30.08
Cn1nccc1CCC(=O)N1CCCC(c2cnccn2)C1 (stereo unspecified)	-30.18
Cc1ncsc1C(=O)N1CCC(c2ncncc2-c2ccnc(N)c2)C1 (stereo unspecified)	1.384
CNC(=O)c1cc2c(nc1NCC1CC1)CCN(c1ccncn1)CC2.O=C(O)C(F)(F)F	13.47
CCOC(=O)C1(Cc2ccccc2)CCCN(Cc2nccn2CC)C1 (stereo unspecified)	18.25
CCn1nnc2c1C(COC)CN(Cc1cccs1)C2.O=C(O)C(F)(F)F (stereo unspecified)	-2.648 & 18.72
Cc1ccccc1-c1noc(-c2ccc(N(C)C3CCOCC3)nc2)n1	-0.1752 & -4.878
Cc1nc(N(C)CCCc2nccn2C)c2c(C)nn(C)c2n1	-2.076
O=S1(=O)c2cnccc2OC(COc2ccccc2)CN1CC1CC1 (stereo unspecified)	-2.513
Cc1nc2oc(C(=O)N3CCOCC3)c(N)c2c2c1CCCC2	-2.119
CCOC(=O)C1CCN(C(=O)c2cc(F)ccc2-n2cnnn2)CC1	0.5086
CC(C)CN1CCc2[nH]cnc2C12CCN(C(=O)c1ccc[nH]1)CC2	-6.821
NC(=O)CS(=O)(=O)Cc1ccc(F)cc1	-10.88
O=C(Nc1cc(-c2ccncc2)no1)C1CC1	7.996
CCOc1ccc(CN2CCNC(C(=O)NC3CC3)C2)cc1CO (stereo unspecified)	4.156
Cc1ccn(C)c(=O)c1NC(=O)N(C)Cc1cccc(OC(C)C)c1	-17.78
CCCc1nc(N[C@H]2COC[C@@H]2N2CCCC2)c2cnn(C)c2n1	-2.375
COCCC1COC2(CCN(C(=O)c3cccnc3)CC2)C1.O=C(O)C(F)(F)F (stereo unspecified)	-5.52 & 23.23
CN1CC[C@H](c2nnc(-c3cncn3C)o2)C1	-9.776
O=C(NCC(F)(F)C(F)F)c1cccnc1	6.494
CC(C)Sc1nnc(CCNC(=O)OC(C)(C)C)o1	12.12
O=C1NC2(CCCN(C(=O)CCn3cccn3)C2)Oc2ccccc21 (stereo unspecified)	61.98 & 6.591
Cc1cc(C(=O)N(C)Cc2cccs2)nc(N2CCCC2)n1	-1.369
N#Cc1ccc(Oc2cc(F)c(CN3CCCC3)c(F)c2)nc1	1.609
COc1ccc2nnc(CCCC(=O)NCCc3ccncc3)n2n1	9.405
O=C(Cc1cc(-c2ccc3c(c2)OCCO3)on1)NCc1ccccn1	-18.35
Cc1cnc(CN2CCOC(Cn3nc(C)nc3C)C2)cn1 (stereo unspecified)	-18.66
COc1c(C)cnc(CN2CCC(N(C)C(=O)C3CC3)CC2)c1C	-8.596
CCn1cc2c(n1)C(COCC1CC1)CN(C(=O)c1cc(C)on1)C2 (stereo unspecified)	18.7
CC(=O)NCCC(=O)NC1(c2ccc(Cl)c(Cl)c2)CC1	1.544
Cc1ccc2[nH]c(CN(C)Cc3n[nH]c4c3CCC4)nc2c1	-12.02 & 6.073
O=C(O)C(F)(F)F.O=C(O)C(F)(F)F.O=C(O)C(F)(F)F.[H][C@@]12CCCO[C@]1([H])[C@H](N(C)Cc1cccnc1)CN2CC1CC1	8.538

5 of the entries, repeated:

structure	percent effect
Cc1cccc(CN2CCc3[nH]nc(C(=O)N4CCOCC4)c3C2)n1	-21.96
CC(=O)NCCC(=O)NC1(c2ccc(Cl)c(Cl)c2)CC1	1.544
O=C(Cc1ccsc1)N1CCCC2(COCCN(CC3CC3)C2)C1.O=C(O)C(F)(F)F (stereo unspecified)	-6.612 & 0.3499
Cn1nccc1CCC(=O)N1CCCC(c2cnccn2)C1 (stereo unspecified)	-30.18
CC(=O)N1CCC(NC2(Cc3cc(CN(C)C)on3)COC2)CC1	-28.35